Laboratory results: PubChem BioAssay AID1259254 (NCATS, 2017)
The whole screen tested about 59,000 reagents; this is a random part of them. About 1,550 of all reagents (2.6%) were called active. 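G2 share is only a proxy for re-replication; each gene was hit by three separate siRNAs, and active genes were retested.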 Raw values vary from plate to plate and are shown uncorrected. The numbers tell different reagents against one gene apart. Not given: the amount of reagent.

- Purpose: 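Finding genes that stop cells copying their DNA twice in one cycle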 (primary screen)
- Cell system: human HCT116 colorectal cancer cells
- Knock-down reagent: single siRNA against human genes
- Timing: 3 days
- Measured: 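Imaged Hoechst DNA stain sorts each cell into a cycle phase by DNA amount; per plate, G2 fraction set to 0% for non-targeting and 100% for GMNN siRNA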
- Reading the numbers: G2 robust z-score and G2 cells, % of GMNN control: higher = more G2 cells, more excess DNA replication; raw share of cells in G2: higher = larger share of cells with G2 DNA content
- Rule for the call: 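An siRNA counts as active if its G2 robust z-score lies at least 5 MADs above the screen median; here such calls match roughly 38% of GMNN control or more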

| Gene | reagent | G2 robust z-score | G2 cells, % of GMNN control | raw share of cells in G2 (%) | Outcome |
| --- | --- | --- | --- | --- | --- |
| LRRC42 (GeneID 115353) | 1 | 0.115 | 3.78 | 5.61 | inactive |
| LRRC42 (GeneID 115353) | 2 | -0.446 | -0.173 | 3.28 | inactive |
| LRRC42 (GeneID 115353) | 3 | -0.413 | 0.0596 | 1.84 | inactive |
| RARG (GeneID 5916) | 1 | 2.62 | 21.4 | 12.9 | inactive |
| RARG (GeneID 5916) | 2 | -0.787 | -2.57 | 3.67 | inactive |
| RARG (GeneID 5916) | 3 | -1.21 | -5.52 | 2.13 | inactive |
| BMPR2 (GeneID 659) | 1 | 0.482 | 6.36 | 7.71 | inactive |
| BMPR2 (GeneID 659) | 2 | -1.26 | -5.91 | 3.42 | inactive |
| BMPR2 (GeneID 659) | 3 | -0.385 | 0.258 | 4.12 | inactive |
| IL22RA2 (GeneID 116379) | 1 | 3.71 | 29.1 | 19.2 | inactive |
| IL22RA2 (GeneID 116379) | 2 | 5.73 | 43.3 | 20.8 | active |
| IL22RA2 (GeneID 116379) | 3 | -0.772 | -2.47 | 3.91 | inactive |
| QARS1 (GeneID 5859) | 1 | 0.631 | 7.41 | 7.51 | inactive |
| QARS1 (GeneID 5859) | 2 | 0.321 | 5.22 | 5.88 | inactive |
| QARS1 (GeneID 5859) | 3 | 2.34 | 19.4 | 11.7 | inactive |
| LINC00330 (GeneID 144817) | 1 | -0.746 | -2.28 | 3.06 | inactive |
| LINC00330 (GeneID 144817) | 2 | -0.987 | -3.97 | 1.69 | inactive |
| LINC00330 (GeneID 144817) | 3 | 0.104 | 3.7 | 4.36 | inactive |
| FNDC9 (GeneID 408263) | 1 | -0.485 | -0.448 | 4.61 | inactive |
| FNDC9 (GeneID 408263) | 2 | 0.461 | 6.21 | 6.07 | inactive |
| FNDC9 (GeneID 408263) | 3 | 1.03 | 10.2 | 7.57 | inactive |

Reformatted: entries from further up.
RARG (GeneID 5916) #3 — G2 robust z-score: -1.21; G2 cells, % of GMNN control: -5.52; raw share of cells in G2 (%): 2.13; Outcome: inactive
BMPR2 (GeneID 659) #1 — G2 robust z-score: 0.482; G2 cells, % of GMNN control: 6.36; raw share of cells in G2 (%): 7.71; Outcome: inactive
BMPR2 (GeneID 659) #2 — G2 robust z-score: -1.26; G2 cells, % of GMNN control: -5.91; raw share of cells in G2 (%): 3.42; Outcome: inactive

More records follow.
| Gene | reagent | G2 robust z-score | G2 cells, % of GMNN control | raw share of cells in G2 (%) | Outcome |
| --- | --- | --- | --- | --- | --- |
| VWC2L (GeneID 402117) | 1 | 0.874 | 9.12 | 7.13 | inactive |
| VWC2L (GeneID 402117) | 2 | -0.426 | -0.0306 | 3.5 | inactive |
| VWC2L (GeneID 402117) | 3 | -0.912 | -3.45 | 3.36 | inactive |
| QSOX2 (GeneID 169714) | 1 | 0.514 | 6.58 | 7.11 | inactive |
| QSOX2 (GeneID 169714) | 2 | -0.478 | -0.397 | 4.53 | inactive |
| QSOX2 (GeneID 169714) | 3 | 1.48 | 13.4 | 12.3 | inactive |
| CTAG2 (GeneID 30848) | 1 | -0.519 | -0.687 | 4.29 | inactive |
| CTAG2 (GeneID 30848) | 2 | 3.79 | 29.7 | 12.6 | inactive |
| CTAG2 (GeneID 30848) | 3 | 2.25 | 18.8 | 11 | inactive |
| SAT2 (GeneID 112483) | 1 | -0.149 | 1.92 | 6.56 | inactive |
| SAT2 (GeneID 112483) | 2 | -1.03 | -4.3 | 3.12 | inactive |
| SAT2 (GeneID 112483) | 3 | -1.03 | -4.27 | 2.87 | inactive |
| CPXCR1 (GeneID 53336) | 1 | -1.1 | -4.77 | 1.89 | inactive |
| CPXCR1 (GeneID 53336) | 2 | 1.34 | 12.4 | 9.49 | inactive |
| CPXCR1 (GeneID 53336) | 3 | 0.237 | 4.63 | 4.72 | inactive |
| IL27 (GeneID 246778) | 1 | -0.43 | -0.0564 | 3.18 | inactive |
| IL27 (GeneID 246778) | 2 | 0.753 | 8.26 | 6.57 | inactive |
| IL27 (GeneID 246778) | 3 | 1.36 | 12.5 | 7.42 | inactive |
| CLDN11 (GeneID 5010) | 1 | -0.638 | -1.52 | 2.86 | inactive |
| CLDN11 (GeneID 5010) | 2 | -0.414 | 0.0547 | 4.87 | inactive |
| CLDN11 (GeneID 5010) | 3 | 1.14 | 11 | 7.09 | inactive |
| NR5A1 (GeneID 2516) | 1 | 1.67 | 14.7 | 10.6 | inactive |
| NR5A1 (GeneID 2516) | 2 | -0.135 | 2.02 | 5.24 | inactive |
| NR5A1 (GeneID 2516) | 3 | 0.361 | 5.5 | 5.78 | inactive |
| PITX2 (GeneID 5308) | 1 | 6.56 | 49.1 | 20.8 | active |
| PITX2 (GeneID 5308) | 2 | -1.17 | -5.25 | 2.72 | inactive |
| PITX2 (GeneID 5308) | 3 | -0.276 | 1.02 | 3.8 | inactive |
